Values from PubChem BioAssay AID686938 (Drosophila RNAi Screening Center, 2013).
Assay: 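Knock-downs reducing store-operated calcium influx in Drosophila cells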 (primary screen). Cells: Drosophila S2R+ cells. Knock-down reagent: long dsRNA against Drosophila genes, about 0.25 µg dsRNA per well, roughly 10,000 cells. Timing: 5 days of knock-down before the calcium assay. Challenge: thapsigargin (SERCA pump blocker) to empty calcium stores; entry signal taken 4 min after adding it. Measured: 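Duplicate raw fluo-4 intensities per well from a plate reader, at rest and four minutes after thapsigargin emptied calcium stores; entry-to-rest ratio filled for only some wells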. Direction: calcium entry signal: higher = stronger calcium signal after store depletion; resting calcium signal: higher = higher resting calcium signal. Units: calcium entry signal in fluorescence units; resting calcium signal in fluorescence units. Active means: 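Called when the plate z-score of the entry-to-rest ratio, mean of duplicates, falls below −3; wells with low overall dye signal (Fmax z below −2) or more than five off-targets excluded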. Meaning of the calls: active = strongly reduced calcium entry; inactive = no strong reduction.
The deposit covers about 23,000 reagents; this is a random part of those with a known target gene and a result. Of all reagents, 75 (0.33%) got an active call. 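Raw plate signals without normalisation; calls rest on plate z-scores that were not deposited; ratio present for only 364 wells.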 Unmarked entries are inactive. Reagent sequences are not shown. Not stated in the record: the dose of the treatment.

Pu [DRSC04645] showed calcium entry signal, replicate 1 = 2.97e7; resting calcium signal, replicate 1 = 1.65e7.
Polr3D [DRSC10485] showed calcium entry signal, replicate 1 = 2.87e7; calcium entry signal, replicate 2 = 4.19e7; resting calcium signal, replicate 1 = 1.37e7; resting calcium signal, replicate 2 = 3.14e7.
CG34155 [DRSC13991] gave calcium entry signal, replicate 1 = 4.38e7; calcium entry signal, replicate 2 = 2.85e7; resting calcium signal, replicate 1 = 2.00e7; resting calcium signal, replicate 2 = 1.20e7.
Knock-down of Ubc6 [DRSC12370] gave: calcium entry signal, replicate 1 = 1.75e7; calcium entry signal, replicate 2 = 1.98e7; resting calcium signal, replicate 1 = 1.13e7; resting calcium signal, replicate 2 = 1.16e7.
With knock-down of Tim17b1 [DRSC12179], the record shows calcium entry signal, replicate 1 = 3.61e7; calcium entry signal, replicate 2 = 3.38e7; resting calcium signal, replicate 1 = 1.93e7; resting calcium signal, replicate 2 = 1.72e7.
CG43428 [DRSC06205] gave calcium entry signal, replicate 1 = 2.75e7; calcium entry signal, replicate 2 = 3.96e7; resting calcium signal, replicate 1 = 1.47e7; resting calcium signal, replicate 2 = 1.84e7.
After knock-down of dpr9 [DRSC14534], the screen gave calcium entry signal, replicate 1 = 4.00e7; calcium entry signal, replicate 2 = 4.55e7; resting calcium signal, replicate 1 = 1.67e7; resting calcium signal, replicate 2 = 1.93e7.
Silencing of dpr9 [DRSC14985] resulted in: calcium entry signal, replicate 1 = 3.74e7; calcium entry signal, replicate 2 = 5.33e7; resting calcium signal, replicate 1 = 1.84e7; resting calcium signal, replicate 2 = 6.83e7.
After knock-down of dpr9 [DRSC14986], the record shows calcium entry signal, replicate 1 = 2.63e7; calcium entry signal, replicate 2 = 5.02e7; resting calcium signal, replicate 1 = 1.47e7; resting calcium signal, replicate 2 = 6.88e7.
For CG31207 [DRSC21886], the entry reads calcium entry signal, replicate 1 = 2.44e7; calcium entry signal, replicate 2 = 3.76e7; resting calcium signal, replicate 1 = 1.19e7; resting calcium signal, replicate 2 = 2.11e7.
Knock-down of CG9449 [DRSC11073] gave: calcium entry signal, replicate 1 = 2.92e7; calcium entry signal, replicate 2 = 4.53e7; resting calcium signal, replicate 1 = 1.37e7; resting calcium signal, replicate 2 = 1.97e7.
Silencing of Drep2 [DRSC07528] resulted in: calcium entry signal, replicate 1 = 3.54e7; calcium entry signal, replicate 2 = 2.89e7; resting calcium signal, replicate 1 = 1.43e7; resting calcium signal, replicate 2 = 1.33e7.
Knock-down of GstE8 [DRSC06678] came out at: calcium entry signal, replicate 1 = 4.10e7; calcium entry signal, replicate 2 = 3.21e7; resting calcium signal, replicate 1 = 1.91e7; resting calcium signal, replicate 2 = 1.60e7.
GstD2 [DRSC16684] showed calcium entry signal, replicate 1 = 3.49e7; calcium entry signal, replicate 2 = 3.00e7; resting calcium signal, replicate 1 = 1.61e7; resting calcium signal, replicate 2 = 1.51e7.
After knock-down of CG31176 [DRSC15038], the screen gave calcium entry signal, replicate 1 = 3.66e7; calcium entry signal, replicate 2 = 5.00e7; resting calcium signal, replicate 1 = 5.23e7; resting calcium signal, replicate 2 = 1.94e7.
After knock-down of CG31176 [DRSC16021], the screen gave calcium entry signal, replicate 1 = 4.34e7; calcium entry signal, replicate 2 = 4.73e7; resting calcium signal, replicate 1 = 4.94e7; resting calcium signal, replicate 2 = 2.01e7.
After knock-down of CG31337 [DRSC12981], the screen gave calcium entry signal, replicate 1 = 3.35e7; calcium entry signal, replicate 2 = 3.61e7; resting calcium signal, replicate 1 = 1.85e7; resting calcium signal, replicate 2 = 1.83e7.
Depletion of CG42741 [DRSC04593] gave: calcium entry signal, replicate 1 = 4.36e7; calcium entry signal, replicate 2 = 5.26e7; resting calcium signal, replicate 1 = 2.22e7; resting calcium signal, replicate 2 = 2.41e7.
For CG42741 [DRSC22045] the deposit lists calcium entry signal, replicate 1 = 3.07e7; calcium entry signal, replicate 2 = 4.44e7; resting calcium signal, replicate 1 = 1.47e7; resting calcium signal, replicate 2 = 2.02e7.
After knock-down of CG15629 [DRSC00464], the screen gave calcium entry signal, replicate 1 = 3.33e7; calcium entry signal, replicate 2 = 3.05e7; resting calcium signal, replicate 1 = 1.58e7; resting calcium signal, replicate 2 = 1.45e7.
After knock-down of CG12506 [DRSC00347] the results were calcium entry signal, replicate 1 = 2.60e7; calcium entry signal, replicate 2 = 2.61e7; resting calcium signal, replicate 1 = 1.25e7; resting calcium signal, replicate 2 = 1.21e7.
